{
  "source": "PubChem BioAssay AID504467",
  "about": "(National Center for Advancing Translational Sciences (NCATS), 2011)",
  "note": "Out of some 330,000 compounds screened, about 7,700 (2.3%) were called active. Inconclusive results, whose numbers are uncertain, are shown with a selection of clear calls. Calls follow the shape of the dose curve; as a rule, active = well fitted inhibition curve with a large enough effect; inconclusive = small, poorly fitted or top-dose-only effect, or effect the other way; inactive = flat fitted curve, though single readings scatter. Potencies beside an inconclusive call are fits to weak or partial responses and may not hold up. % is scaled to controls: 0 for no effect and ±100 for the full control effect; potency is read from the fitted curve at half-maximal effect.",
  "data": [
    {"test": "qHTS screen for small molecules that inhibit ELG1-dependent DNA repair in human embryonic kidney (HEK293T) cells expressing luciferase-tagged ELG1; also: nearly all actives have a fitted effect of over 55% in size", "settings": "HEK293T ELG1-luciferase reporter, luminescence, 16 h, DNA damage induced by 5-fluorouridine; activity change, negative = inhibition: at 46.1 µM (top of the series)", "in_short": "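Luminescence from the luciferase reporter, measured 30 min after ONE-Glo reagent at room temperature, was the read-out. Beforehand, 2,000 cells per well were exposed for 16 hr at 37 °C to 5-fluorouridine together with compound or vehicle.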", "values": [
      {"smiles": "CC(C)(C)n1ncc2c(=O)n(Cc3ccccc3Br)cnc21", "Potency": "inactive"},
      {"smiles": "Cc1ccc(S(=O)(=O)N2CCCC(C(=O)N(Cc3cccs3)C3CC3)C2)cc1", "note": "(centres undefined)", "Potency": "inconclusive: 29.1 µM [inhibitor, single point]"},
      {"smiles": "COc1cc2c(cc1OC)C(C)N(C(=O)c1cc3c(C)cc(C)cc3[nH]1)CC2", "note": "(centres undefined)", "Potency": "active: 16.4 µM"},
      {"smiles": "CC(C)c1ccc(NC(=O)CN2C(=O)NC3(CCCC3)C2=O)cc1", "Potency": "inconclusive: 29.1 µM [activator, partial curve, poor fit]"},
      {"smiles": "Cc1ccc(/C=N/NC(=O)CCSc2ccccc2)cc1", "Potency": "inconclusive: 11.6 µM [activator, partial curve, poor fit]"},
      {"smiles": "Fc1cccc(CSc2nc3ncccc3[nH]2)c1", "Potency": "inconclusive: 20.6 µM [activator, partial curve]"},
      {"smiles": "COc1ccc(CN(Cc2cccn2C)C(=O)c2cc3cc(OC)ccc3[nH]2)cc1", "Potency": "inconclusive: 29.1 µM [inhibitor, single point]"},
      {"smiles": "O=C(COc1coc(CN2CCCc3ccccc32)cc1=O)Nc1cccc([N+](=O)[O-])c1", "Potency": "inactive"},
      {"smiles": "Cc1ccc(/C=N/NC(=O)c2cc3ccccc3cc2O)o1", "Potency": "inactive"},
      {"smiles": "COc1ccc([N+](=O)[O-])cc1NC(=O)Cn1ccc(C(F)(F)F)n1", "Potency": "inactive"},
      {"smiles": "CCOc1ccc(N(CC)C(=O)c2nn(-c3ccc(OC)cc3)c(=O)c3c2c2ccccc2n3C)cc1", "Potency": "inconclusive: 1.16 µM [inhibitor, single point]"},
      {"smiles": "COc1ccc(/C=C2\\N=C(C)OC2=O)cc1[N+](=O)[O-]", "Potency": "inactive"},
      {"smiles": "COc1cccc(OC)c1C(=O)Nc1cccc2c1CCCC2", "Potency": "inactive"},
      {"smiles": "Cc1cc(C)c2c(N)c(C(=O)c3ccccc3)sc2n1", "Potency": "inconclusive: 0.146 µM [activator, single point]"},
      {"smiles": "Oc1ccccc1C(=S)N1CCCC1", "Potency": "inconclusive: 35.5 µM [inhibitor, partial curve, poor fit]"},
      {"smiles": "COc1ccc(C(=O)NC2CC3CCCC(C2)N3CC(C)C)cc1OC", "note": "(centres undefined)", "Potency": "inconclusive: 0.184 µM [inhibitor, single point]"},
      {"smiles": "CC(C)CCNC(=O)C(c1ccco1)N(Cc1ccccc1)C(=O)c1snc(C(N)=O)c1N", "note": "(centres undefined)", "Potency": "inconclusive: 18.4 µM [inhibitor, single point]"},
      {"smiles": "CC1CCC(C(C)C)C(OCC(O)CN2CCCC(C)C2)C1", "note": "(centres undefined)", "Potency": "inconclusive: 14.6 µM [inhibitor, single point]"},
      {"smiles": "O=C(CCCOc1ccc(Cl)cc1Cl)N/N=C/c1ccccc1O", "Potency": "inconclusive: 6.51 µM [inhibitor, single point]"},
      {"smiles": "COc1ccc(CNC(=O)C(c2ccncc2)N(C(=O)Cc2cccs2)c2ccccc2C)cc1", "note": "(centres undefined)", "Potency": "inactive"},
      {"smiles": "O=C1C(Cl)=C(NCCN2CCOCC2)C(=O)c2ccccc21", "Potency": "inconclusive: 23.1 µM [inhibitor, partial curve]"},
      {"smiles": "CCN(CC)c1ccc(C(=O)NNC(=O)CNC(=O)c2cccs2)cc1", "Potency": "inactive"},
      {"smiles": "CCOc1ccc(NC(=O)CN(C)C(=O)CCCOc2ccc(Cl)c(C)c2)cc1OCC", "Potency": "inconclusive: 23.1 µM [inhibitor, single point]"},
      {"smiles": "CCOC(=O)N/N=C(\\CCC(=O)O)c1cccs1", "Potency": "inconclusive: 29.1 µM [inhibitor, single point]"},
      {"smiles": "Cc1cccc(NC(=O)C2CCN(S(=O)(=O)c3cccc4cccnc34)CC2)c1", "Potency": "inconclusive: 20.6 µM [inhibitor, single point]"},
      {"smiles": "Cc1cc(C)c(S(=O)(=O)N2CCc3ccccc32)c(C)c1", "Potency": "inactive"},
      {"smiles": "CC1CN(CCOc2ccccc2C(C)C)CC(C)O1", "note": "(centres undefined)", "Potency": "inactive"},
      {"smiles": "CCNC(=S)NC1CC2CCCC(C1)N2Cc1ccco1", "note": "(centres undefined)", "Potency": "inactive"},
      {"smiles": "COc1cc(CNc2nc(C)c([N+](=O)[O-])c(C)c2C#N)cc(OC)c1OC", "Potency": "active: 7.31 µM"},
      {"smiles": "CCc1ccc(Cn2nnc(C(=O)Nc3ccc(OC)cc3OC)c2N)cc1", "Potency": "inconclusive: 29.1 µM [activator, single point]"},
      {"smiles": "CC(Sc1nnc(COc2ccc(Cl)cc2)o1)C(=O)Nc1ccc(N2CCOCC2)cc1", "note": "(centres undefined)", "Potency": "inactive"},
      {"smiles": "CCN(CC)CCn1c(=N)n(CCO)c2ccccc21", "Potency": "inactive"},
      {"smiles": "CCOc1cc(C(=O)OCC(=O)N(C)c2ccccc2)cc(OCC)c1OCC", "Potency": "inconclusive: 23.1 µM [inhibitor, partial curve, poor fit]"},
      {"smiles": "CC(C)(C)C(=O)NNC(=O)C1CC1(c1ccccc1)c1ccccc1", "note": "(centres undefined)", "Potency": "inactive"},
      {"smiles": "Cc1ccc(C(=O)OCc2cc(=O)n3ccsc3n2)s1", "Potency": "inconclusive: 25.9 µM [activator, single point]"},
      {"smiles": "Cc1ccc(NC(=O)C2CC(=O)N(Cc3ccccc3)C2)cc1S(=O)(=O)N1CCCCCC1", "note": "(centres undefined)", "Potency": "inconclusive: 18.4 µM [inhibitor, partial curve]"},
      {"smiles": "COc1cc(/C=C/C(=O)O)cc(S(=O)(=O)Nc2cccc(SC)c2)c1OC", "Potency": "inactive"},
      {"smiles": "Cc1ccccc1NC(=O)OCc1cccnc1Sc1ccc(Cl)cc1", "Potency": "inconclusive: 29.1 µM [inhibitor, partial curve, poor fit]"},
      {"smiles": "C/C(=N\\NC(=O)c1ccc(Cl)cc1)c1ccccn1", "Potency": "inconclusive: 3.66 µM [activator, single point]"},
      {"smiles": "CCNC(=O)N(C)C[C@H]1N[C@@](Cc2ccccc2)(C(=O)OC)[C@H]2C(=O)N(C)C(=O)[C@@H]12", "Potency": "inconclusive: 29.1 µM [activator, partial curve, poor fit]"},
      {"smiles": "Cn1nc(C(=O)NCc2ccccc2Cl)c2c1-c1ccccc1S(=O)(=O)C2", "Potency": "inconclusive: 20.6 µM [inhibitor, single point]"},
      {"smiles": "Cc1cc2cc(CNC(=O)c3ccc(Br)o3)ccc2n1C", "Potency": "inactive"},
      {"smiles": "Oc1cccc(N2Cc3ccccc3C2)c1", "Potency": "inconclusive: 23.1 µM [activator, single point]"},
      {"smiles": "COc1ccc(CS(=O)(=O)/C(Cl)=C(/Cl)C(=O)Nc2ccc(OC)nc2)cc1", "Potency": "inconclusive: 29.1 µM [inhibitor, single point]"},
      {"smiles": "CCOC(=O)N1CCN(c2cc(=O)n(-c3cccc(C)c3)c(=O)[nH]2)CC1", "Potency": "inactive"},
      {"smiles": "CCCCC(=O)Nc1ccc2c(c1)OCCO2", "Potency": "inconclusive: 14.6 µM [activator, partial curve]"},
      {"smiles": "Cc1nnc(SCC(=O)Nc2nc(-c3ccccc3)cs2)n1N", "Potency": "inconclusive: 29.1 µM [activator, single point]"},
      {"smiles": "COC(=O)c1sc2ccccc2c1NC(=O)c1ccc(S(=O)(=O)N2CCCCC2)cc1", "Potency": "inactive"},
      {"smiles": "Cc1ccc(N(C(=O)c2csnn2)C(C(=O)NC(C)(C)C)c2cccnc2)cc1", "note": "(centres undefined)", "Potency": "inactive"},
      {"smiles": "COC(=O)c1ccc(Cn2nnc3c(=O)[nH]c(C4CCN(S(=O)(=O)c5ccc(F)cc5)CC4)nc32)cc1", "Potency": "inactive"},
      {"smiles": "CC1C(=O)NN=C1C(=O)N/N=C\\C(Br)=C\\c1ccccc1", "note": "(centres undefined)", "activity change, negative = inhibition": "inconclusive: 256% [activator]"},
      {"smiles": "COc1ccc(NC(=O)CN2CCCCC2)cc1", "Potency": "inconclusive: 20.6 µM [activator, single point]"},
      {"smiles": "COc1ccc(CNC(=O)Cn2cc3c(n2)CCCCC3)cc1", "Potency": "inconclusive: 0.82 µM [activator, full curve, poor fit]"},
      {"smiles": "CCCc1cc(C(=O)N2CCC(n3nccc3NC(=O)c3ccc(OC)cc3)CC2)no1", "Potency": "inactive"},
      {"smiles": "CCOC(=O)CCCNC(=O)c1cncc(Br)c1", "Potency": "inconclusive: 0.92 µM [inhibitor, full curve, poor fit]"},
      {"smiles": "Cc1cccc(N(Cc2cc3cc(C)ccc3[nH]c2=O)C(=O)c2cccs2)c1", "Potency": "inconclusive: 23.1 µM [inhibitor, single point]"},
      {"smiles": "COc1ccc(NC(=O)COC(=O)CN2C(=O)c3ccccc3C2=O)cc1", "Potency": "inactive"},
      {"smiles": "Cc1cccc(COCC(Cc2ccccc2)N2CCN(C(=O)c3ccc(Cl)c(Cl)c3)CCC2=O)c1", "note": "(centres undefined)", "Potency": "inconclusive: 18.4 µM [inhibitor, single point]"},
      {"smiles": "CCOC(=O)c1oc2ccccc2c1NC(=O)c1ccco1", "Potency": "inactive"},
      {"smiles": "Clc1nnc2ccc(-c3ccccc3)nn12", "Potency": "inconclusive: 29.1 µM [activator, partial curve, poor fit]"},
      {"smiles": "Cc1occc1C(=O)NCCc1cccc(Cl)c1", "Potency": "inconclusive: 20.6 µM [activator, partial curve]"},
      {"smiles": "COc1cc2c(cc1OC)/C(=C/C(=O)c1ccc(OC)c([N+](=O)[O-])c1)NCC2", "Potency": "inconclusive: 23.1 µM [inhibitor, single point]"},
      {"smiles": "Cc1cc(C)n2c(SCC(C)C)nnc2n1", "Potency": "inconclusive: 16.4 µM [activator, partial curve, poor fit]"},
      {"smiles": "Cc1ccc(NC(=S)NC2CCCC2)cc1C", "Potency": "inconclusive: 18.4 µM [activator, partial curve]"},
      {"smiles": "COc1ccc(OCC(O)CN2CCN(CC(O)COc3ccc(OC)cc3)CC2)cc1", "note": "(centres undefined)", "Potency": "inactive"},
      {"smiles": "COc1ccc(-n2c(COc3cccc(C)c3)n[nH]c2=S)cc1", "Potency": "inactive"},
      {"smiles": "CCC(C)Sc1cccc(-c2nc3ccccn3c2NCc2ccccc2)c1", "note": "(centres undefined)", "Potency": "inconclusive: 29.1 µM [inhibitor, single point]"},
      {"smiles": "COc1ccc(N(C(=O)CCl)C(C(=O)NC2CCCCC2)c2cccnc2)cc1", "note": "(centres undefined)", "Potency": "active: 20.6 µM"},
      {"smiles": "CCNS(=O)(=O)c1ccc(CCC(=O)Nc2ccc3c(c2)OCCO3)cc1", "Potency": "inactive"},
      {"smiles": "O=C(NC1=NCCS1)c1cccc(N2C(=O)c3ccccc3C2=O)c1", "Potency": "inactive"},
      {"smiles": "Cc1noc(C)c1CSc1nc2ccccc2n1C", "Potency": "inconclusive: 17.8 µM [activator, single point]"},
      {"smiles": "Nc1ccc(C(=O)N(CCO)CCO)cc1", "Potency": "inactive"},
      {"smiles": "Nc1nonc1-n1nnc(C(=O)N/N=C/c2ccc(Br)cc2)c1CSC1=NCCS1", "Potency": "inconclusive: 8.2 µM [inhibitor, single point]"},
      {"smiles": "CCc1cccc(NC(=O)Nc2cccs2)c1", "Potency": "inconclusive: 7.31 µM [activator, partial curve]"}
    ]}
  ]
}
